Laboratory results reported in publication PMC10895266, “The structure of the Caenorhabditis elegans TMC-2 complex suggests roles of lipid-mediated subunit contacts in mechanosensory transduction” (Proceedings of the National Academy of Sciences of the …, 2024).
No constants are given. Whether binding was seen depends on the method and setting. Some entries that bind do so weakly or less than the wild type. Where a sequence is shown, tags or fusion partners need not be part of it.

Target: TMC-2 (transmembrane channel-like protein 2), native, tagged with mVenus-3xFLAG at the endogenous locus (C. elegans) (UniProt Q11069)
Assay: cryo-EM structure; single-particle cryo-EM of the native TMC-2 complex isolated from worms (anti-FLAG affinity, SEC, GDN, 1 mM CaCl2); cis-dimeric particles selected

binding: binds
B1: TMC-2 (transmembrane channel-like protein 2), native, tagged with mVenus-3xFLAG at the endogenous locus (natural protein, C. elegans, UniProt Q11069 1-1203, looked up)
chain: MPKSGAHQPLVRHDTDDGGETGQSVKSLADVSEEEIDSRMSRRSSVIADLLSLFRRSSSVLVRPHTRLGNPNFDDDDDEFDEEDDKEASKDRILKKIQQKKEIIQKLRGQPWYMKRKRRTLKVAQKHLQQQEAKVSKARLYKAEAGRRLTQASRWLDNLKIYLIPWEAKIRKIESHFGSVVSSYFTFHRWVLGVNITITFIMCMFVVIPEWLADSRTQFGDDRYNKTKAIKVMPPAVRARADELSTVWDFGGYFQYSLLFYGFYSKETFFGETIKYRVPVAYFFCNIFILGFSLFIILRKMAANNRRGTLSSGKTQQYLFNWKAFTGWDYTIGNPETAGNVYMANVIKFREAINDDKQKPSDKHPWIRFVARVLTNLFICAMYVFSIWAIMQCGTLKGEHFFAQNATAITISLITLVFPNIFDLLGKIEKLHPRNALRFQLGRVLVLYILNYYTLIYSLMLQLEHLQKEKNASDNPISALGHPGDAIGRTIRETVLPRYPVDNNPHTYYSYAPVTTTPIPATSSWTTVLPDFGPFGVYNPKASVTKDDTVFSSPVVETHMFGPNSDWNETTVNAASPTGATTRASLRMSQGGLCWETIIGQEITKLVTMDLYMTVASIFLIDFLRGLACRYLNLYWPWDLERTFPEYGEFKVAENVLHLVNNQGMIWLGLFFVPLLPMLNNIKLIILMYIRGWAAMTCNVPASQIFRASRSSNFFFALLILFLFLCTLPVGFVIASKTPSKSCGPFGNQSFFYSVITDVLHENLDKTLVNGIKYSLSPGIIIPVLVLLSLVIYFLIAMVTGLSQANQDLSFQLMVERTEEKKKIFELAGGKKKKSKDNTFGKQKPKQLLPPPTKGVSSDDDSQHNRSTAKSVSGRQFVPSLGSVSEVDHSTGEEQSSDSESTTSSLPPKLSLRQRFLVCIGWADPNKYGRHDDIEMEEGGGRLRELSTGSETDSDDEDSEKSNRDMSYRTAIQSFDQNSQSASASSSKSTTTAPSNSEMRIEITENPLHTYITPLRIEKKSSASSSSSSHQPSSSIEKQAARRLLQPISTTHNIRYGVATVENSSQDPTRPPSTDDSLGDPALHEPLWANLNPHSSYTSAMMSPIMNEVMSNDETTDDEKGRLIPDRPPIPHSPRELKRLKREKDQQSESGSKPSTPRPPRFRISMSPPRKPPSEKNDSDSSNRKYEMRVEKSPKKPKKSDND
modifications: N-glycans at N225 and N748
notes: TMC-2, C. elegans, endogenous tmc-2 gene (Wormbase B0416.1a); tag inserted prior to the stop codon; residues M1 to D1203 named; modelled 89-471, 583-813; A 3C (PreScission) site lies between mVenus and 3xFLAG; The complex was captured on anti-FLAG resin by the 3xFLAG tag, which was cut off on elution with 3C protease before SEC, mass spectrometry and cryo-EM; also called TMC-2-mVenus; …
